Experimental data: the supplement of paper PMC10032668
± gives the standard deviation of the averaged measurements. Some of the results follow. The list holds hits alone, and they repeat only in part.

The chains behind the UniProt entries cited, without tags or fusion partners.
AP2A2, O94973, UniProt O94973, whole entry: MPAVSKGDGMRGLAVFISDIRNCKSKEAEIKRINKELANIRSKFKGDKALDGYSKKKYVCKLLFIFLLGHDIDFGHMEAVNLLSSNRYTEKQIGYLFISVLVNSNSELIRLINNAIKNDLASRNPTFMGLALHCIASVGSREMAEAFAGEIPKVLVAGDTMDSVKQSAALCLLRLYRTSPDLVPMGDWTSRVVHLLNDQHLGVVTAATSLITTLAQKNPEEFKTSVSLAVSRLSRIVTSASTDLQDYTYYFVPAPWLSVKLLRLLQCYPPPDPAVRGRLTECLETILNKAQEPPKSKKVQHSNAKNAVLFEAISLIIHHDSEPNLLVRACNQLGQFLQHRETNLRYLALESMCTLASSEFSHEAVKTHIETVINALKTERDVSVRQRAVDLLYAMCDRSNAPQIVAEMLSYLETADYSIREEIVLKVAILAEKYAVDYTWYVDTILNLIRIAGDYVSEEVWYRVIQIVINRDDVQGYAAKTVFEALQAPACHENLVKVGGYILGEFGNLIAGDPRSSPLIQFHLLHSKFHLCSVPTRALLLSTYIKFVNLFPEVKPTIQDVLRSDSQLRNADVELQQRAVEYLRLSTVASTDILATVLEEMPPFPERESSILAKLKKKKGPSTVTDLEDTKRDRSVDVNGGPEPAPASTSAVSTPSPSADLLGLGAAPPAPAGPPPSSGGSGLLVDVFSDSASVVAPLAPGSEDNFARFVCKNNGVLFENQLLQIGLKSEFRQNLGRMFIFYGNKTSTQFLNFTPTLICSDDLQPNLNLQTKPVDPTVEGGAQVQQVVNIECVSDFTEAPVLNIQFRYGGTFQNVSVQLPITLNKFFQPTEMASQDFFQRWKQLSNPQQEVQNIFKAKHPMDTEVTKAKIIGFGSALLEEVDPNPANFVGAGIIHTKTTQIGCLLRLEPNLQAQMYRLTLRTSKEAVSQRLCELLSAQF
CRIPT, Q9P021, UniProt Q9P021, whole entry: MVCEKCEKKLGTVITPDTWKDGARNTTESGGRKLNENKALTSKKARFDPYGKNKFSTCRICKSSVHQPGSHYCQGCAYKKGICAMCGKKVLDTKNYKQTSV

How the values were obtained:
Assay in all cases: PRISMA enrichment of interactor (LFQ) in peptide spot vs all other peptide spots (log2 fold change); higher = stronger / more specific binding of the interactor to the peptide
[1] = target: ALKBH2, Q6NS38
Procedure: (§1)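 PRISMA: 221 full-length sORF-encoded peptides (3-15 aa), plus SOS1/GLUT1 control peptides, were spot-synthesized on cellulose membranes in triplicate. Membranes were incubated with HEK293T lysate, and bound proteins were identified by LC-MS/MS with LFQ. Enrichment is the log2 fold change versus all other peptide spots; only significant interactors are listed (cutoff c=6, x0=2.8).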

[2] = target: ALYREF, Q86V81
Procedure: as §1

[3] = target: AMMECR1L, Q6DCA0
Procedure: as §1

[4] = target: AP2A2, O94973
Procedure: as §1

[5] = target: C11orf98, E9PRG8
Procedure: as §1

[6] = target: C12orf65, Q9H3J6
Procedure: as §1

[7] = target: C19orf53, Q9UNZ5
Procedure: as §1

[8] = target: C8orf33, Q9H7E9
Procedure: as §1

[9] = target: CCDC137, Q6PK04
Procedure: as §1

[10] = target: CCDC59, Q9P031
Procedure: as §1

[11] = target: CFAP20, Q9Y6A4
Procedure: as §1

[12] = target: CHID1, Q9BWS9
Procedure: as §1

[13] = target: CHTOP, Q9Y3Y2
Procedure: as §1

[14] = target: CKMT1A, P12532
Procedure: as §1

[15] = target: CRIPT, Q9P021
Procedure: as §1

[16] = target: CSNK1A1, P48729
Procedure: as §1

[17] = target: CSNK1D, P48730
Procedure: as §1

[18] = target: CSNK1E, P49674
Procedure: as §1

[19] = target: CSRP2, Q16527
Procedure: as §1

[20] = target: CXorf56, Q9H5V9
Procedure: as §1

[21] = target: DDX47, Q9H0S4
Procedure: as §1

[22] = target: DDX49, Q9Y6V7
Procedure: as §1

[23] = target: DECR2, Q9NUI1
Procedure: as §1

[24] = target: EDF1, O60869
Procedure: as §1

[25] = target: EEFSEC, P57772
Procedure: as §1

[26] = target: EHHADH, Q08426
Procedure: as §1

[27] = target: EMG1, Q92979
Procedure: as §1

[28] = target: FBL, P22087
Procedure: as §1

[29] = target: GABARAPL2, P60520
Procedure: as §1

[30] = target: GAR1, Q9NY12
Procedure: as §1

MQEVWGELGD [PDGFD]
PRISMA enrichment of interactor (log2) [1]: 5.71
PRISMA enrichment of interactor (log2) [2]: 6.21 ± 0.18
PRISMA enrichment of interactor (log2) [3]: 4.47
PRISMA enrichment of interactor (log2) [4]: 4.92
PRISMA enrichment of interactor (log2) [5]: 5.08
PRISMA enrichment of interactor (log2) [6]: 5.64
PRISMA enrichment of interactor (log2) [7]: 8.52
PRISMA enrichment of interactor (log2) [8]: 4.34
PRISMA enrichment of interactor (log2) [9]: 8.02
PRISMA enrichment of interactor (log2) [10]: 5.09
PRISMA enrichment of interactor (log2) [11]: 4.87
PRISMA enrichment of interactor (log2) [12]: 3.93
PRISMA enrichment of interactor (log2) [13]: 5.99
PRISMA enrichment of interactor (log2) [14]: 9.63
PRISMA enrichment of interactor (log2) [15]: 4.43
PRISMA enrichment of interactor (log2) [16]: 8.43
PRISMA enrichment of interactor (log2) [17]: 4.47
PRISMA enrichment of interactor (log2) [18]: 7.17
PRISMA enrichment of interactor (log2) [19]: 4.91
PRISMA enrichment of interactor (log2) [20]: 6.14
PRISMA enrichment of interactor (log2) [21]: 5.24
PRISMA enrichment of interactor (log2) [22]: 6.51
PRISMA enrichment of interactor (log2) [23]: 5.22
PRISMA enrichment of interactor (log2) [24]: 4.99
PRISMA enrichment of interactor (log2) [25]: 6.92
PRISMA enrichment of interactor (log2) [26]: 7.08
PRISMA enrichment of interactor (log2) [27]: 7.72
PRISMA enrichment of interactor (log2) [28]: 5.62
PRISMA enrichment of interactor (log2) [29]: 6.13
PRISMA enrichment of interactor (log2) [30]: 5.41
